Assay: general procedure: solution-phase peptide synthesis; isobutyl chloroformate / N-methylmorpholine (mixed anhydride); HOBT / 1-(3-dimet)
Settings: coupling step

“N-alpha-(3-Carbomethoxypropionyl)-N-epsilon-benzyloxycarbonyl-L-lysyl-L-va lyl-L-prolyl-L-valinal diethylacetal” gave a step yield of 58%.

Source: patent publication US4596789A (ICI Americas Inc., priority 1983, dated 1986)
